{"source": "PubChem BioAssay AID493014", "about": "(National Center for Advancing Translational Sciences (NCATS), 2011)", "note": "About 170 (0.05%) of roughly 340,000 compounds were called active. This list was built around the results that the source calls inconclusive (neither active nor inactive); the mix of calls is not that of the screen. Calls follow the shape of the dose curve; as a rule, active = well fitted inhibition curve with a large enough effect in the signal ratio, with a control signal flat (not every such curve was filed as active); inconclusive = small, poorly fitted or top-dose-only effect, or effect the other way, or a change in a side signal; inactive = flat fitted curve, though single readings scatter; the % refers to the signal ratio. Where the call is inconclusive, the potency comes from a doubtful curve fit. Potency is read from the fitted curve at half-maximal effect.", "data": [{"test": "qHTS Assay to Find Inhibitors of Chronic Active B-Cell Receptor Signaling;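 as to activity change, negative = inhibition: plate controls were basal doxycycline-induced cells for no effect and cells given 10 µM MG132 for full effect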", "conditions": "ABC-DLBCL IkBa-CBG/CBR reporter, luminescence ratio (green luciferase fused to IkBa over red control in TMD8 lymphoma cells), 4 h; activity change, negative = inhibition: at 46.1 µM (top of the series) unless noted", "in_short": "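TMD8 ABC-DLBCL cells carrying doxycycline-inducible green luciferase fused to IkappaBalpha plus unfused red luciferase were exposed to compounds (up to 46 uM) for 4 hrs at 37C. Activity came from the overlap-corrected green/red luminescence ratio.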", "values": [{"smiles": "CN1C(=O)C(O)(CC(=O)c2ccc3c(c2)OCO3)c2ccccc21", "note": "(configuration not stated)", "activity change, negative = inhibition": "inactive: -15.6%"}, {"smiles": "O=C1CC(=C(c2ccccc2)c2ccccc2)C(=O)N1CCCN1CCN(c2cccc(Cl)c2)CC1", "activity change, negative = inhibition": "inactive: 5.89%"}, {"smiles": "Brc1ccc(/C=N/Nc2ccc3ccccc3n2)cc1", "Potency": "inconclusive: 35.5 µM [rising, single point]"}, {"smiles": "CCC(C)(C)n1nnnc1C(c1cc(OC)c(OC)c(OC)c1)N1CCN(c2ccccc2)CC1", "note": "(configuration not stated)", "activity change, negative = inhibition": "inconclusive: -1.18%"}, {"smiles": "COc1ccccc1NC(=O)/C=C/C(=O)O", "Potency": "inconclusive: 35.5 µM [falling, single point]"}, {"smiles": "O=C(Nc1ccc(Cl)cc1)c1cc(-c2cccs2)on1", "Potency": "inconclusive: 10 µM [falling, partial curve]"}, {"smiles": "O=C(CCC(=O)N1CCOc2ccccc21)Nc1ccc(F)cc1F", "Potency": "inconclusive: 7.94 µM [falling, partial curve, poor fit]"}, {"smiles": "Cc1cccc(N2CCN(C(=O)CCS(=O)(=O)c3ccc(Br)cc3)CC2C)c1", "note": "(configuration not stated)", "activity change, negative = inhibition": "inconclusive: 0.199%"}, {"smiles": "Cn1cc(Br)c(C(=O)NNC(=O)c2cccc(Br)c2)n1", "Potency": "inconclusive: 35.5 µM [falling, single point]"}, {"smiles": "O=C(O)c1ccccc1Nc1ccc([N+](=O)[O-])c2nonc12", "activity change, negative = inhibition": "inconclusive: 12.5%"}, {"smiles": "Cc1cccc(NC(=O)NC(=O)c2ccccc2)n1", "Potency": "inconclusive: 2.51 µM [falling, full curve]"}, {"smiles": "Cc1ccc(O)c(NC(=O)c2ccc3c(c2)C(=O)N(Cc2ccco2)C3=O)c1", "Potency": "inconclusive: 31.6 µM [falling, partial curve, poor fit]"}, {"smiles": "Cn1c(=O)[nH]c(=O)c2c1nc(N1CCNCC1)n2Cc1cccc2ccccc12", "activity change, negative = inhibition": "inactive: 5.11%"}, {"smiles": "O=C(c1cnn2c(C(F)(F)F)cc(-c3ccc(F)cc3)nc12)N1CCc2ccccc2C1", "activity change, negative = inhibition": "inactive: 0.566%"}, {"smiles": "Cc1ccc(C)c(OCC(=O)NNC(=O)CCN2CCN(c3ccccc3)CC2)c1", "activity change, negative = inhibition": "inactive: 1.18%"}, {"smiles": "C=C(C)Cn1c(CN(C)Cc2ccccc2)nc2c1c(=O)n(C)c(=O)n2C", "activity change, negative = inhibition": "inactive: -0.372%"}, {"smiles": "Fc1cc(Br)ccc1NC(=S)Nc1cccnc1", "activity change, negative = inhibition": "inconclusive: 6.03%"}, {"smiles": "COc1cccc(/C=N/NC(N)=S)c1OCc1ccccc1Cl", "activity change, negative = inhibition": "inactive: -18.7%"}, {"smiles": "C=CCSc1nc2ccccc2n1C(=O)/C=C/c1ccc(OC)c(OC)c1", "activity change, negative = inhibition": "inconclusive: -9.79%"}, {"smiles": "O=C(NCCCCNC(=O)c1ccccn1)c1ccccn1", "activity change, negative = inhibition": "inconclusive: 7.72%"}, {"smiles": "COc1cccc(COC(=O)c2cc(S(=O)(=O)N3CCCCC3)ccc2N2CCOCC2)c1OC", "activity change, negative = inhibition": "inconclusive: 1.62%"}, {"smiles": "CCOC(=O)c1ccc(NC(=O)N2CCN(c3ccccc3OC)CC2)cc1", "activity change, negative = inhibition": "inconclusive: -67.3%"}, {"smiles": "Cc1ccnc(N2CCN(C(=O)CSc3nc4ccccc4nc3N3CCCCC3)CC2)c1", "activity change, negative = inhibition": "inconclusive: 14%"}, {"smiles": "Cc1cc(OC(=O)c2c(C)cc(O)cc2O)cc(O)c1C(=O)O", "Potency": "inconclusive: 18.4 µM [rising, partial curve]"}, {"smiles": "O=C(/C=C/c1ccccc1)NC(=O)c1ccccc1O", "activity change, negative = inhibition": "inconclusive: 208%"}, {"smiles": "O=c1c2ccccc2nc(COc2ccccc2)n1/N=C/c1cn[nH]c1-c1ccccc1", "Potency": "inconclusive: 23.1 µM [falling, partial curve, poor fit]"}, {"smiles": "CCOC(=O)c1c(C)c(C(=O)N(C)C2CCCCC2)c(C)n1C", "activity change, negative = inhibition": "inconclusive: 14.3%"}, {"smiles": "CCN(C(=O)c1cc2c(=O)[nH]c3ccc(C)cc3c2s1)c1ccccc1C", "activity change, negative = inhibition": "inactive: 3.2%"}, {"smiles": "CC1CCCC(C)N1C(=O)CSc1nnc(COc2cccc3cccnc23)o1", "note": "(configuration not stated)", "activity change, negative = inhibition": "inconclusive: 15%"}, {"smiles": "N#Cc1ccc(C(=O)Nc2cc(-c3ccc(F)cc3)nn2-c2ccccc2)cc1", "Potency": "inconclusive: 32.6 µM [falling, single point]"}, {"smiles": "NC(=O)[C@H]1CC2(CC(c3cccc(NC(=O)CC(c4ccccc4)c4ccccc4)c3)=NO2)CN1C(=O)c1ccccc1C(=O)c1ccccc1", "note": "(some centres not stated)", "activity change, negative = inhibition": "inactive: -4.07%"}, {"smiles": "CCSc1nc(CC)c2c(c1C#N)CCCC2", "activity change, negative = inhibition": "inconclusive: -11.3%"}, {"smiles": "CCOC(=O)c1c(NC(=O)c2cccs2)sc(CC)c1-c1cccs1", "activity change, negative = inhibition": "inconclusive: 2.57%"}, {"smiles": "COc1ccc(CCNC(=O)COC(=O)CCC(=O)c2ccc(F)cc2)cc1", "activity change, negative = inhibition": "inconclusive: -0.85%"}, {"smiles": "O=C(c1cccs1)N1CCN(Cc2ccc3c(c2)OCO3)CC1", "Potency": "inconclusive: 20 µM [falling, partial curve, poor fit]"}, {"smiles": "CCOC(=O)CN1C(=O)N(c2ccccc2OC)S(=O)(=O)c2ccccc21", "activity change, negative = inhibition": "inactive: -0.264%"}, {"smiles": "O=C(O)c1cn(C2CC2)c2cc(N3CCN(S(=O)(=O)c4ccc5c(c4)OCCO5)CC3)c(F)cc2c1=O", "Potency": "inconclusive: 8.91 µM [falling, full curve, poor fit]"}, {"smiles": "Clc1ccccc1CNc1ncnc2c1c(-c1ccccc1)cn2-c1ccccc1", "activity change, negative = inhibition": "inconclusive: 4.87%"}, {"smiles": "COC(=O)C1=C(CN2CCc3ccccc32)NC(=O)NC1c1cc(C)ccc1C", "note": "(configuration not stated)", "activity change, negative = inhibition": "inconclusive: -2.44%"}, {"smiles": "CCCNC(=O)c1ccc(N2CCC3(CC2)CC(c2cccc(Br)c2)=NO3)c(NC(=O)c2ccco2)c1", "activity change, negative = inhibition": "inconclusive: 1.58%"}, {"smiles": "c1ccc2c(c1)CSc1sccc1C2=C1CCNCC1", "activity change, negative = inhibition": "inconclusive: -20.7%"}, {"smiles": "CCOC(=O)c1ccc(NC(=O)COc2ccccc2CNCCc2ccccc2)cc1", "Potency": "inconclusive: 35.5 µM [falling, single point]"}, {"smiles": "Cc1ccc(Cl)cc1NC(=O)CN1C(=O)NC(C)(C2CC2)C1=O", "note": "(configuration not stated)", "activity change, negative = inhibition": "inconclusive: 3.05%"}, {"smiles": "O=C(CSCc1ccccc1Cl)NCCSc1ccccn1", "activity change, negative = inhibition": "inconclusive: 7.98%"}, {"smiles": "CN(c1ccc(F)cc1)S(=O)(=O)c1ccc(Cl)c(C(=O)NCC(c2ccco2)N2CCCCC2)c1", "note": "(configuration not stated)", "activity change, negative = inhibition": "inconclusive: -10.3%"}, {"smiles": "O=C(NCC1CCCO1)c1onc(CSc2ccccc2F)c1C(=O)O", "note": "(configuration not stated)", "Potency": "inconclusive: 15.8 µM [falling, partial curve, poor fit]"}, {"smiles": "CCN(CC)C(=O)[C@H]1C[C@H](CC(=O)NCC23CC4CC(CC(C4)C2)C3)C(=O)N2CCc3c([nH]c4cc(CCC(=O)N(C)C)ccc34)[C@]12C", "Potency": "inconclusive: 18.4 µM [falling, partial curve, poor fit]"}, {"smiles": "COc1ccc(-c2cc(=Nc3c(C)n(C)n(-c4ccccc4)c3=O)c3ccccc3o2)cc1", "activity change, negative = inhibition": "inconclusive: 5.15%"}, {"smiles": "CCC(C)(C)NC(=O)CN(Cc1cccs1)C(=O)C(=O)Nc1ccc2c(c1)OCCO2", "activity change, negative = inhibition": "inconclusive: -2.89%"}, {"smiles": "O=C1[C@@H]2C(Cc3ccc(O)cc3)NC3(C(=O)Nc4ccc(F)cc43)[C@@H]2C(=O)N1c1ccc(F)cc1", "note": "(some centres not stated)", "activity change, negative = inhibition": "inconclusive: -11%"}, {"smiles": "CCC(C)(C)NC(=O)C(c1cccn1C)N(C(=O)Cn1nnc2ccccc21)c1ccc(OC)cc1OC", "note": "(configuration not stated)", "activity change, negative = inhibition": "inconclusive: 0.711%"}, {"smiles": "Cc1coc2c1c(C)cc1oc(=O)c(CC(=O)NCC(=O)N[C@H](C(=O)O)C(C)C)c(C)c12", "activity change, negative = inhibition": "inconclusive: 8.34%"}, {"smiles": "CCc1c(C)nc2ncnn2c1NCCc1ccc(Cl)cc1", "activity change, negative = inhibition": "inconclusive: -2.44%"}, {"smiles": "COc1ccc(NC(=S)N2CCCC(CO)C2)c(OC)c1", "note": "(configuration not stated)", "activity change, negative = inhibition": "inconclusive: 2.34%"}, {"smiles": "COc1ccc(-c2cn3cc(C(=O)NN)ccc3n2)cc1", "Potency": "inconclusive: 3.98 µM [falling, partial curve, poor fit]"}, {"smiles": "CCCc1ccc(C(=O)NC(=O)c2ccccc2O)cc1", "Potency": "inconclusive: 5.62 µM [falling, partial curve]"}, {"smiles": "CCCNC(=O)C1CC(c2cccc(F)c2)=NO1", "note": "(configuration not stated)", "activity change, negative = inhibition": "inconclusive: 4.18%"}, {"smiles": "CC(Nc1cccc2ccccc12)C(=O)N/N=C/c1ccc([N+](=O)[O-])cc1", "note": "(configuration not stated)", "Potency": "inconclusive: 23.1 µM [falling, single point]"}, {"smiles": "Cc1ccc(Cn2nnc3c(=O)[nH]c(C4CCN(S(=O)(=O)c5cc(C)ccc5C)CC4)nc32)cc1", "activity change, negative = inhibition": "inactive: 16.9%"}, {"smiles": "Cc1ccc(CNC(=O)C2CCC(=O)N(CCc3cccc(F)c3)C2)cc1", "note": "(configuration not stated)", "activity change, negative = inhibition": "inactive: 0.426%"}, {"smiles": "COc1cc(C(=O)Nc2nnc(C(C)(C)C)s2)c([N+](=O)[O-])cc1OC", "activity change, negative = inhibition": "inconclusive: -1.01%"}, {"smiles": "O=S(=O)(c1cccs1)N1CCN(c2ncccn2)CC1", "activity change, negative = inhibition": "inactive: -14.5%"}, {"smiles": "O=C(COC(=O)COc1ccccc1)NCCC1=CCCCC1", "activity change, negative = inhibition": "inconclusive: 8.27%"}, {"smiles": "Cc1ccc(C(=O)/C=C/c2cn(CN3CCN(C)CC3)c3ccccc23)cc1", "Potency": "inconclusive: 29.1 µM [falling, single point]"}, {"smiles": "Cn1nc(C(F)(F)F)c(-c2ccc(Br)cc2)c1NC(=O)Nc1ccc(F)cc1F", "activity change, negative = inhibition": "inactive: -10.6%"}, {"smiles": "COCCNC(=O)C1CCC(Cn2c(=S)[nH]c3ccccc3c2=O)CC1", "note": "(configuration not stated)", "activity change, negative = inhibition": "inactive: -2.27%"}, {"smiles": "O=C(NCCN1CCCC1)c1ccc2c(c1)N(Cc1ccc(F)cc1)C(=O)c1ccccc1S2=O", "note": "(configuration not stated)", "activity change, negative = inhibition": "inconclusive: 5.44%"}, {"smiles": "COc1ccc(CCN2C(=O)CC(NNC(=O)c3ccccc3Br)C2=O)cc1", "note": "(configuration not stated)", "Potency": "inconclusive: 6.51 µM [falling, full curve, poor fit]"}, {"smiles": "O=C(Nc1cccnc1)c1sc(Nc2ccccc2)nc1-c1ccccc1", "activity change, negative = inhibition": "inconclusive: 5.17%"}, {"smiles": "Cc1cc(C)n(-c2nc(C)nc(NCc3ccccc3)n2)n1", "activity change, negative = inhibition": "inconclusive: 10%"}, {"smiles": "Cc1c(NC(=O)C(C)Sc2n[nH]c(N)n2)c(=O)n(-c2ccccc2)n1C", "note": "(configuration not stated)", "activity change, negative = inhibition": "inconclusive: -24.7%"}, {"smiles": "Cc1noc(C)c1S(=O)(=O)Nc1cc(C(F)(F)F)ccc1N1CCOCC1", "activity change, negative = inhibition": "inconclusive: -19.5%"}, {"smiles": "Cc1cc2occ(CC(=O)N(C)CC(=O)Nc3cccc(F)c3)c2cc1C", "activity change, negative = inhibition": "inconclusive: -13.4%"}, {"smiles": "Cc1ccc2oc3c(c(=O)c2c1)C(c1cccc(O)c1)N(c1ccccn1)C3=O", "note": "(configuration not stated)", "activity change, negative = inhibition": "inactive: 5.08%"}, {"smiles": "Cc1cccc(C)c1NC(=S)N/N=C/c1ccc(OCCC(C)C)cc1", "activity change, negative = inhibition": "inconclusive: 14.2%"}, {"smiles": "CCc1cc(=O)[nH]c(SCCc2ccccc2)n1", "Potency": "inconclusive: 35.5 µM [rising, single point]"}, {"smiles": "Cc1c(/C=N/Nc2ccc(C(=O)O)cc2)c2ccccc2n1C", "activity change, negative = inhibition": "inconclusive: 16.2%"}]}]}
